Laboratory results published in patent US11478440B2, “Combination of Elafibranor or derivatives thereof with an anti-NASH, anti-fibrotic or anti-cholestatic agent” (GENFIT, priority 2017, dated 2022).
At least one structure is not confirmed: it was looked up by name or label, or the drawing left a doubt.

Key:
[1] = tested on: fibrosing NASH-model of rats fed a CDAA+1% cholesterol diet; experiment: Chronic CDAA+1% cholesterol rat model: liver histology (picrosirius fibrosis surface, NASH lesions); format: in vivo, Wistar rats; conditions: CDAA/chol diet rats, 12 weeks
Procedure: The preventive effects of Elafibranor alone, OCA alone and the combination of both were assessed in a fibrosing NASH-model of rats fed a CDAA+1% cholesterol diet. 150-175 g male Wistar rats were fed a control (CSAA) diet, CDAA+1% cholesterol diet, or CDAA+1% cholesterol diet supplemented with Elafibranor 1, 3 and 10 mg/kg/day, OCA 10 and 30 mg/kg/day or combined drugs (Elafibranor 1, 3 and 10 mg/kg/day combined to OCA 10 mg/kg/day) for 12 weeks.
The body weight and the food intake were monitored twice per week. On the last day of treatment, rats were sacrificed after a 6 h fasting period. The liver was rapidly excised for biochemical and histological studies.
The liver slices were first fixed for 12 hours in formalin 4% solution. Then, the liver pieces were washed 30 minutes in PBS, and dehydrated in ethanol solutions (successive baths at 70, 80, 95 and 100% ethanol). The liver pieces were incubated in three different baths of Xylene (Sigma-Aldrich cat #534056), followed by two baths in liquid paraffin (56° C.). Liver pieces were then put into racks that were gently filled with HISTOWAX to completely cover the tissue.
The paraffin blocks containing the tissue pieces were removed from the racks and stored at room temperature. The liver blocks were cut into 3 μm slices.
Liver sections were deparaffinized, rehydrated and incubated for 3 minutes in Mayer's Hematoxylin (Microm, cat #F/C0303). Then, the liver sections were rinsed in water and incubated 1 minute in Eosin G (VWR, cat #1.09844.1000). Sections were rinsed in water then dehydrated, and mounted using the CV Mount medium (Leica, cat #14046430011). […]
A technician blinded to the source of each liver specimen performed histological examinations. […] Briefly, steatosis, lobular inflammation and hepatocytes ballooning were scored. […]
Using Quant Center software (3D Histech, including Pattern Quant and Histo Quant modules), collagen-stained areas were quantified. […] The fibrosis area was then expressed as the percentage of the collagen surface to the whole tissue per animal.

TGFβ1-induced hHSC = experiment: α-SMA ELISA in TGFβ1-induced human primary hepatic stellate cells; format: cell-based; conditions: TGFβ1-activated hHSC, dose range
Procedure: The human primary hepatic stellate cells (hHSC) (Innoprot) were cultured in STeCM medium (ScienCell cat #5301) that was supplemented with 2% fetal bovine serum (FBS, ScienCell cat #0010), 1% penicillin/streptomycin (ScienCell cat #0503) and stellate cell growth supplement (SteCGS; ScienCell cat #5352). Cell culture flasks were coated with Poly-L Lysine (Sigma cat #P4707) for a better adherence.
For these experiments, a checkerboard matrix was generated. ELA and component (ii) stocks were serially diluted in DMSO in 5-points series in a row (ELA) and a 11-points series in a column (component (ii)) of a 96-well plate. Subsequently, the 5×11 combination matrix was generated by 1:1 mixing of all single agent concentrations. The test concentrations for each compound were chosen based on the respective IC50 of each compound as single agent obtained by measuring α-SMA content in the HSC model stimulated with TGF-β1.
The human primary hepatic stellate cells (hHSC) (Innoprot) were cultured under standard conditions, as described above. The cells were subsequently plated at a density of 2×10^4 cells/well into 96-well plates for the measure of α-SMA by ELISA. The next day, cell-culture medium was removed, and cells were washed with PBS (Invitrogen cat #14190). hHSC were deprived for 24 hours in serum-free and SteCGS-free medium. […]
The level of α-SMA was measured using a Sandwich ELISA. […]

Compound: CC[C@H]1[C@@H](O)[C@@H]2[C@H](CC[C@]3(C)[C@@H]([C@H](C)CCC(=O)O)CC[C@@H]23)[C@@]2(C)CC[C@@H](O)C[C@@H]12 [OCA, obeticholic acid, reference compound]
- fibrosis development [1]: very significant attenuation of fibrosis development
- hepatocyte damage as judged by ballooning [1]: only showed partial ballooning attenuation
- lobular inflammation [1]: to a lesser extent

Compound: CC(C)(Oc1ccc(CCNC(=O)c2ccc(Cl)cc2)cc1)C(=O)O [Bezafibrate, reference compound]
- antifibrotic activity (α-SMA), single agent (TGFβ1-induced hHSC): weak antifibrotic profile
